In article PMC3556083:
Results are given in words; binding and its absence hold for the method and conditions named. Binding seen in cells or lysates may run through a third protein. These calls come from enrichment with a bait or labelling near it, and not all partners need be listed. Tags and fused reporters may be left off the sequences shown.

B1: QKI (protein, UniProt Q91XU1 1-341)
chain: MVGEMETKENPNPTPDYLMQLMNDKKLMSSLPNFCGIFNHLERLLDEEISRVRKDMYNDTLNGSTEKRSAELPDAVGPIVQLQEKLYVPVKEYPDFNFVGRILGPRGLTAKQLEAETGCKIMVRGKGSMRDKKKEEQNRGKPNWEHLNEDLHVLITVEDAQNRAEIKLKRAVEEVKKLLVPAAEGEDSLKKMQLMELAILNGTYRDANIKSPALAFSLAATAQAAPRIITGPAPVLPPAALRTPTPAGPTIMPLIRQIQTAVMPNGTPHPTAAIVPPGPEAGLIYTPYEYPYTLAPATSILEYPIEPSGVLGAVATKVRRHDMRVHPYQRIVTADRAATGN
B2: GPLD1 (protein, UniProt Q8R2H5 24-843)
chain: CGLSTHVEIGHRALQFLQLQDGRINYKELLLEHQDAYQAGTVFPDAFYPSICKQGKFHEVSESTHWTPFLNASIHYIRENYPLPWEKDTEKLVAFLFGVTSHMVADVSWHSLGIEQGFLRTMGAIDFYDSYSEAHSAGDFGGDVLSQFEFNFNYLSRRWYVPIQDLLRIYDNLYGRKVITKNVIVDCTYLQFLEMHGEMLAVSKLYSTYSTKSPFLVEQFQDYFLGGLDDMAFWSTNIYRLTSFMLENGTSDCNLPENPLFISCDGRKNHTLSSSKVQKNDFHRNLTMFISKDIRKNLNYTERGVFYSTGSWAPESVTFMYQTLERNLRMMFTGNSQTALKHVSSPSASYTLSVPYARLGWVMASADLNQDGHGDLVVGAPGYSHPGRFQIGRVYIIYGNDLGLPPIDLDLDKEAHGVLEGFQPSGRFGSALAVLDFNKDGLPDLAVGAPSVGSGQLTYNGSVYVYYGSQQGRLSSSPNITISCKDTYCNLGWALLAADADGDGQHDLVISSPFAPGGGKQRGIVAAFYSHPRRNDKESLTLDEADWKVNGEEDFSWFGYSLHGVTVANRSLLLIGSPTWKNISRMARSSHQKNQEKKSLGRVYGYFPPNRQREITISGDKAMGKLGTSLSSGYVRVNGTLTQVLLVGAPTHDDVSKMAFLTMTLHHGGATRMYELAPEKTQPALFSTFSGDRRFSRFGSVLHLTDLDDDGLDEIIMAAPLRITDVTSGLLGEEDGRVYIYNGMHTTLGDVTGKCKSWMTPCPEEKAQYVLISPEASSRFGSSLVSVRSKERNQVVVAAGRSSWGARLSGALHVYSFSSD
B3: SH3GLB1 (protein, UniProt Q6AYE2 1-365)
chain: MNIMDFNVKKLAADAGTFLSRAVQFTEEKLGQAEKTELDAHLENLLSKAECTKVWTEKIMKQTEVLLQPNPNARIEEFVYEKLDRKAPSRINNPELLGQYMIDAGTEFGPGTAYGNALIKCGETQKRIGTADRELIQTSALNFLTPLRNFIEGDYKTIAKERKLLQNKRLDLDAAKTRLKKAKAAETKSSSEQELRITQSEFDRQAEITRLLLEGISSTHAHHLRCLNDFVEAQMTYYAQCYQYMLDLQKQLGSFPSNYVSNNNQTSGTPVPYTLSNTIGPSAVASTGSLVITCPPNLSDLKDSSSTRKARVLYDYDAANSTELSLLADEVITVFSVVGMDSDWLMGERGNQKGKVPITYLELLN
B4: PTPMT1 (protein, UniProt P0C089 32-193)
chain: PAHRDWYHRIDHTVLLGALPLRSMTRRLVLDENVRGVITMNEEYETRFLCNTSKEWKNVGVEQLRLSTVDMTGVPTLANLHRGVQFALKYQSLGQCVYVHCKAGRSRSATMVAAYLIQVHNWSPEEAIEAIAKIRSHISIRPSQLEILKEFHKEIAARAAKN
B5: GPD1 (protein, UniProt O35077 1-349)
chain: MAGKKVCIVGSGNWGSAIAKIVGSNASQLAHFDPRVTMWVFEEDIGGRKLTEIINTQHENVKYLPGHKLPPNVVAVPDVVQAATGADILVFVVPHQFIGKICDQLKGHLKANTIGISLIKGIDEGPNGLKLISEVIGESLGIPMSVLMGANIASEVAEEKFCETTIGCKDPAQGQLLKELMQTPNFRITVVQEVDTVEICGALKNIVAVGAGFCDGLGFGDNTKAAVIRLGLMEMIAFAKLFCSGSVSSATFLESCGVADLITTCYGGRNRKVAEAFARTGKSIEQLEKEMLNGQKLQGPQTARELHSILQHKGLVDKFPLFTAVYKVCYEGQPVGEFICCLQNHPEHM
B6: GFPT1 (protein, UniProt P82808 1-681)
chain: MCGIFAYLNYHVPRTRREILETLIKGLQRLEYRGYDSAGVGLDGGNDKDWEANACKIQLIKKKGKVKALDEEVHKQQDMDLDIEFDVHLGIAHTRWATHGEPSPVNSHPQRSDKNNEFIVIHNGIITNYKDLKKFLESKGYDFESETDTETIAKLVKYMYDNWESQDVSFTTLVERVIQQLEGAFALVFKSVHFPGQAVGTRRGSPLLIGVRSEHKLSTDHIPILYRTGKDKKGSCGLSRVDSTTCLFPVEEKAVEYYFASDASAVIEHTNRVIFLEDDDVAAVVDGRLSIHRIKRTARDHPGRAVQTLQMELQQIMKGNFSSFMQKEIFEQPESVVNTMRGRVNFDDYTVNLGGLKDHIKEIQRCRRLILIACGTSYHAGMATRQVLEELTELPVMVELASDFLDRNTPVFRDDVCFFISQSGETADTLMGLRYCKERGALTVGITNTVGSSISRETDCGVHINAGPEIGVASTKAYTSQFVSLVMFALMMCDDRISMQERRKEIMLGLKRLPDLIKEVLSMDDEIQKLATELYHQKSVLIMGRGYHYATCLEGALKIKEITYMHSEGILAGELKHGPLALVDKLMPVIMIIMRDHTYAKCQNALQQVVARQGRPVVICDKEDTETIKNTKRTIKVPHSVDCLQGILSVIPLQLLAFHLAVLRGYDVDFPRNLAKSVTVE
B7: PTGES2 (protein, UniProt D4AE56 1-392)
chain: MAQAARVAWVLGSSRCALSEGLLTRPWTQLSAQSRAGFTRAAAGNRGASIRKGSPRLLGVAALALGGALGLYHTVRWHLRSQDLHAERSAVQLSLSNRLQLTLYQYKTCPFCSKVRAFLDFHSLPYQVVEVNPVRRTEIKFSSYRKVPILVAQEGDSLQQLNDSSVIISALKTYLVSGQPLEEIITYYPPMKAMNDQGKEVTEFGNKYWLMLDQKEAQQMYGGKEARTEEMKWRQWADDWLVHLISPNVYRTPAEALASFDYIVREGKFGAVEATMAKYVGAAAMYFISKRLKSRHHLQDDVRVDLYEAANKWVTAVGKDRPFMGGQKPNLADLAVYGVLRVMEGLEAFDDLMRHSHIQPWYLRMERAIKEASSMHYLMFMFSPVPALHREQ
B8: CRAT (protein, UniProt Q704S8 1-626)
chain: MLAFAARTVVKPLGLLKPSSLMKVSGRFKAHQDALPRLPVPPLQQSLDHYLKALQPIVSEEEWAHTKQLVDEFQTSGGVGERLQKGLERRAKKMENWLSEWWLKTAYLQFRQPVVIYSSPGVLLPKQDFMDLQGQLRFAAKLIEGVLDFKSMIDNETLPVEFLGGQPLCMNQYYQILSSCRVPGLKQDSVVNFLKSKKPPTHITVVHNYQFFELDVYHSDGTPLTSDQIFVQLEKIWNSSLQSNKEPVGILTSNHRNSWAKAYSSLIKDKVNRESVNSIQKSIFTVCLDKQVPRVSDDVYRSHVAGQMLHGGGSKFNSGNRWFDKTLQFIVAEDGSCGMVYEHAAAEGPPIVALVDHVMEYTKKPELVRSPMVPLPMPKKLRFNITPEIKNDIEKAKQNISIMIQDLDIMMLVFHHFGKDFPKSQKLSPDAFIQIALQLAYYRIYGQACATYESASLRMFHLGRTDTIRSASTDSLAFVKGMDDPKVPEQQRVELLRKAVQAHRAYTDRAIRGEAFDRHLLGLKLQAIEDLVSMPDIFMDTSYAIAMHFNLSTSQVPAKTDCVMSFGPVVPDGYGICYNPMEAHINFSVSAYNSCAETNAARMAHYLEKALLDMRTLLQNHPRAKL

Molecular target: β2-adrenergic receptor (UniProt P07550)
Assay: affinity purification with mass spectrometry; purified Flag-β2AR in rHDL immobilised on M1 anti-Flag resin, occupied by 50 µM BI-167107 (full agonist) or 50 µM carazolol (inverse agonist); adult rat heart cytosol (10 mg/ml, 4 mM CaCl2) overnight at 4°C; eluted with FLAG peptide and EDTA; gel slices, LC-MS; proteins of the M1 resin, empty rHDL and Ni-NTA controls subtracted; hits of either or both samples; only the target purified

binding, binds:
B1
B2
B3
B4
B5
B6
B7
B8
